Measured values published in patent publication US20240116973A1, “MODIFIED OLIGONUCLEOTIDES” (ALNYLAM PHARMACEUTICALS, INC., priority 2021, published 2024).
At least one structure is not confirmed: it was looked up by name or label, or the drawing left a doubt.

Sequences of proteins named here, by UniProt entry; tags and fusion partners are left off. Residues count along the entry.
UniProt O00411, 42-1230: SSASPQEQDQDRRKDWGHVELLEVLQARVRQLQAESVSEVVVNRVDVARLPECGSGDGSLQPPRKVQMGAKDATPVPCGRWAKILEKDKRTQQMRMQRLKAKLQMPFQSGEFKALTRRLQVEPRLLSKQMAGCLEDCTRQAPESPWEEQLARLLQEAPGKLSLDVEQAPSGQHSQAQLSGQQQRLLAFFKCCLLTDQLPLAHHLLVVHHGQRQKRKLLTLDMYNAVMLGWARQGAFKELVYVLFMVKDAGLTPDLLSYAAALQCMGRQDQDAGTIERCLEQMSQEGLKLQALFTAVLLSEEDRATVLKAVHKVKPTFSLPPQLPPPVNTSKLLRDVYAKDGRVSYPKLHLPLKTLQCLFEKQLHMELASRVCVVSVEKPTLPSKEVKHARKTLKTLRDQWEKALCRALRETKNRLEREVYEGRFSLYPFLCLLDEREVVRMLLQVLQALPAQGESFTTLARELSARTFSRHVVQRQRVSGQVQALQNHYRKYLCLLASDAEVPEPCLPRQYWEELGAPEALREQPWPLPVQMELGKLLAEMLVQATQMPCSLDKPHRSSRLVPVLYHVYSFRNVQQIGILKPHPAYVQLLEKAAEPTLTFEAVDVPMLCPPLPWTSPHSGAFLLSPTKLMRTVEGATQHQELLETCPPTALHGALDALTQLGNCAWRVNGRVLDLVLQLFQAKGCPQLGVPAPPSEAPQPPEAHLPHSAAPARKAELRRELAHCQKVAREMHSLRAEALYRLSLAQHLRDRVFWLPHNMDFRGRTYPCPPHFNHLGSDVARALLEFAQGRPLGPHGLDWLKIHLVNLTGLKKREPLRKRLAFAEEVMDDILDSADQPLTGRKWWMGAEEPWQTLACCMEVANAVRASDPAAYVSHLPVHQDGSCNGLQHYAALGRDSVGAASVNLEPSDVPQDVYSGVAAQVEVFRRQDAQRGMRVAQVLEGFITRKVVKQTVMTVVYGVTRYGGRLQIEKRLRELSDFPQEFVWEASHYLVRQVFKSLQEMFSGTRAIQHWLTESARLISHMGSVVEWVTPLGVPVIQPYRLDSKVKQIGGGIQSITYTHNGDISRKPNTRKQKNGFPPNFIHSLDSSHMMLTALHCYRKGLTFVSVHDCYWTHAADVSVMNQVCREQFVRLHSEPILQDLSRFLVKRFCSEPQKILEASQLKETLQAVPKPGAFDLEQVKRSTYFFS

Biological target: T1, human mitochondrial RNA polymerase POLRMT (Homo sapiens, UniProt O00411)
T1 construct: purchased Indigo Biosciences MV100-40
Test: POLRMT primer extension (polymerase incorporation) assay
Format: biochemical
Conditions: ratio as printed, not defined further
From the text: Purified exonuclease activity-deficient human mitochondrial DNA polymerase POLG was obtained from the lab of Prof. William Copeland (National Institute of Environmental Health Science, Durham, NC, USA). Human mitochondrial POLRMT was purchased from Indigo Biosciences (Cat #MV100-40). Atto-425-labelled DNA and RNA primers were synthesized in house; DNA templates were obtained from IDT.
The assays are designed for single NT addition on appropriate template/primer sets: • Atto-425 labeled primers allow for high sensitivity fluorescence detection with very low reaction volumes • Analytical IEX-HPLC with fluorescence detection for optimal resolution of primer-extended products—especially important in competition mixtures • Assays can be applied for the assessment of incorporation efficiency of novel chemistries.
Reaction conditions for the POLG incorporation assays were as follows: 100 nM DNA template, 100 nM 5′-Atto-425-labelled DNA primer, 40 units POLG, 100 μM or 1 mM NTP substrate in 20 mM Tris-HCl, pH 8.0, 2 mM β-mercaptoethanol, 0.1 mg/mL bovine serum albumin, 10 mM MgCl2. […] The reaction mixtures were diluted with water to a final primer concentration of approximately 2.5 nM and analysed by IEX-HPLC with an attached fluorescence detector (excitation wavelength: 436 nm, emission wavelength: 485 nm) and a Dionex BioLCDNAPac PA200 4×250 mm (8 μm particle size) column. […]

Compound: CNc1ncnc2c1ncn2[C@@H]1O[C@H](COP(=O)(O)OP(=O)(O)OP(=O)(O)O)[C@@H](O)[C@H]1F [2′Fluoro-N6Methyl-Atp triphosphate, ((2R,3R,4R,5R)-4-fluoro-3-hydroxy-5-(6-(methylamino)-9H-purin-9-yl)tetrahydrofuran-2-yl)methyl triphosphate]
- PolRMT Inhibition/Competition: Competes: Competes > 10:1
- PolRMT Inhibition/Competition: Inhibits: Inhibits > 100:1
